This is one part of the list.

Experiment in all cases: glycan array binding signal (z-score within array); higher = stronger binding
What all share (details): glycan notation: IUPAC condensed, linker removed

For assay [1], the target named is Gal(b1-4)GalNAc(b1-3)[Fuc(a1-2)]Gal(b1-4)GlcNAc. Put shortly: (§1)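 Glycan array data were curated from 3228 arrays in the Consortium for Functional Glycomics database and kept only where the protein sequence was available. Glycan names were converted to IUPAC-condensed notation, and columns mapping to the same glycan were averaged. The binding signal is a within-array Z-score, averaged across arrays of the same protein sequence at different concentrations or buffers and across linkers. Negative Z-scores can be read as non-binding.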

In another assay the target is Gal(b1-4)Glc. Put shortly: as §1
The target in another assay is Gal(b1-4)Glc6S. In short, it runs like this:
as §1

The next assay addresses Gal(b1-4)GlcNAc. Put shortly: as §1
In assay [2] the target is Gal(b1-4)GlcNAc(a1-6)Gal(b1-4)GlcNAc. In short, it runs like this:
as §1

Another assay deals with Gal(b1-4)GlcNAc(b1-2)Man. In short, it runs like this:
as §1

In assay [3] the target is Gal(b1-4)GlcNAc(b1-2)Man(a1-3)Man(b1-4)GlcNAc(b1-4)GlcNAc. In short, it runs like this: as §1
For assay [4], the target named is Gal(b1-4)GlcNAc(b1-2)Man(a1-3)[Gal(b1-4)GlcNAc(b1-2)Man(a1-6)]Man(b1-4)GlcNAc(b1-4)GlcNAc. In short, it runs like this: as §1
The target in assay [5] is Gal(b1-4)GlcNAc(b1-2)Man(a1-3)[Gal(b1-4)GlcNAc(b1-2)Man(a1-6)]Man(b1-4)GlcNAc(b1-4)[Fuc(a1-6)]GlcNAc. In short, it runs like this:
as §1

Assay [6] deals with Gal(b1-4)GlcNAc(b1-2)Man(a1-3)[Gal(b1-4)GlcNAc(b1-2)Man(a1-6)][Gal(b1-4)GlcNAc(b1-4)]Man(b1-4)GlcNAc(b1-4)[Fuc(a1-6)]GlcNAc. Put shortly:
as §1

Assay [7] deals with Gal(b1-4)GlcNAc(b1-2)Man(a1-3)[Gal(b1-4)GlcNAc(b1-2)Man(a1-6)][GlcNAc(b1-4)]Man(b1-4)GlcNAc(b1-4)[Fuc(a1-6)]GlcNAc. In short, it runs like this:
as §1

For assay [8], the target named is Gal(b1-4)GlcNAc(b1-2)Man(a1-3)[GlcNAc(b1-2)Man(a1-6)]Man(b1-4)GlcNAc(b1-4)GlcNAc. In short, it runs like this: as §1
The target of assay [9] is Gal(b1-4)GlcNAc(b1-2)Man(a1-3)[GlcNAc(b1-4)][Gal(b1-4)GlcNAc(b1-2)Man(a1-6)]Man(b1-4)GlcNAc(b1-4)GlcNAc. Put shortly: as §1
For assay [10], the target named is Gal(b1-4)GlcNAc(b1-2)Man(a1-3)[Man(a1-6)]Man(b1-4)GlcNAc(b1-4)GlcNAc. In short, it runs like this: as §1
For assay [11], the target named is Gal(b1-4)GlcNAc(b1-2)Man(a1-6)Man(b1-4)GlcNAc(b1-4)GlcNAc. Put shortly:
as §1

In assay [12] the target is Gal(b1-4)GlcNAc(b1-2)Man(a1-6)[GlcNAc(b1-2)Man(a1-3)]Man(b1-4)GlcNAc(b1-4)GlcNAc. Put shortly: as §1
For assay [13], the target named is Gal(b1-4)GlcNAc(b1-2)Man(a1-6)[Man(a1-3)]Man(b1-4)GlcNAc(b1-4)GlcNAc. In short, it runs like this:
as §1

Assay [14] has as its target Gal(b1-4)GlcNAc(b1-2)[Gal(b1-4)GlcNAc(b1-4)]Man(a1-3)[Gal(b1-4)GlcNAc(b1-2)Man(a1-6)]Man(b1-4)GlcNAc(b1-4)GlcNAc. In short, it runs like this:
as §1

Assay [15] has as its target Gal(b1-4)GlcNAc(b1-2)[Gal(b1-4)GlcNAc(b1-4)]Man(a1-3)[Gal(b1-4)GlcNAc(b1-2)[Gal(b1-4)GlcNAc(b1-6)]Man(a1-6)]Man(b1-4)GlcNAc(b1-4)GlcNAc. In short, it runs like this: as §1
In assay [16] the target is Gal(b1-4)GlcNAc(b1-2)[Gal(b1-4)GlcNAc(b1-4)]Man(a1-3)[GlcNAc(b1-4)][Gal(b1-4)GlcNAc(b1-2)Man(a1-6)]Man(b1-4)GlcNAc(b1-4)GlcNAc. In short, it runs like this:
as §1

The target in assay [17] is Gal(b1-4)GlcNAc(b1-2)[Gal(b1-4)GlcNAc(b1-4)]Man(a1-3)[GlcNAc(b1-4)][Gal(b1-4)GlcNAc(b1-2)[Gal(b1-4)GlcNAc(b1-6)]Man(a1-6)]Man(b1-4)GlcNAc(b1-4)GlcNAc. Put shortly: as §1
In assay [18] the target is Gal(b1-4)GlcNAc(b1-2)[Gal(b1-4)GlcNAc(b1-6)]Man(a1-6)[Gal(b1-4)GlcNAc(b1-2)Man(a1-3)]Man(b1-4)GlcNAc(b1-4)GlcNAc. Put shortly:
as §1

B1: Actd5 (Actinidia), P84527 (protein)
chain: ISSCNGPCRDLNDCDGQLICIKGKCNDDPQVGTHICRGTTHSHQPGGCKPSGTLTCRGKSYPTYDCSPPVTSSTPAKLTNNDFSEGGDDGGPSECDESYHNNNERIVALSTGWYNGGSRCGKMIRITASNGKSVSAKVVDECDSRHGCDKEHAGQPPCRNNIVDGSNAVWSALGLDKNVGVVDITWSMA
Turning to B1, the “glycan array binding signal (z-score)” value in assay [1] was 1.16; with Gal(b1-4)Glc it was 0.034; in the assay with Gal(b1-4)Glc6S it was 0.117; in the assay with Gal(b1-4)GlcNAc, -0.447; in assay [2], -0.614; in the assay with Gal(b1-4)GlcNAc(b1-2)Man, 0.139. Moreover, the “glycan array binding signal (z-score)” value in assay [3] is -0.365; in assay [4], -1.48; in assay [5], 1.05; in assay [6] it was -0.365; in assay [7] it was -0.621; in assay [8], -0.899. The “glycan array binding signal (z-score)” value is -0.11 in [9]; 0.717 in [10]; -0.655 in [11]; -1.01 in assay [12]; 0.245 in assay [13]; 0.256 in assay [14]. Moreover, the “glycan array binding signal (z-score)” value was -0.276 in [15], 0.95 in [16], -0.201 in assay [17] and -0.602 in assay [18].

These data come from the supplement of paper PMC8728848.
